Results taken from PubChem BioAssay AID2585 (National Center for Advancing Translational Sciences (NCATS), 2010).
The inconclusive results got no clear call from the source; some entries with a clear call stand among them for comparison. Where the call is inconclusive, the potency comes from a doubtful curve fit. The source made the active and inactive calls. Calls follow the shape of the dose curve; as a rule, active = well fitted inhibition curve with a large enough effect; inconclusive = small, poorly fitted or top-dose-only effect; inactive = no such curve, though single readings can be large or run the other way.

Protein sequences, listed by entry. Tags and fused reporters are not part of them. Lines headed by an entry give the natural chain unless they say otherwise; changes in a name come on top.
UniProt P54132: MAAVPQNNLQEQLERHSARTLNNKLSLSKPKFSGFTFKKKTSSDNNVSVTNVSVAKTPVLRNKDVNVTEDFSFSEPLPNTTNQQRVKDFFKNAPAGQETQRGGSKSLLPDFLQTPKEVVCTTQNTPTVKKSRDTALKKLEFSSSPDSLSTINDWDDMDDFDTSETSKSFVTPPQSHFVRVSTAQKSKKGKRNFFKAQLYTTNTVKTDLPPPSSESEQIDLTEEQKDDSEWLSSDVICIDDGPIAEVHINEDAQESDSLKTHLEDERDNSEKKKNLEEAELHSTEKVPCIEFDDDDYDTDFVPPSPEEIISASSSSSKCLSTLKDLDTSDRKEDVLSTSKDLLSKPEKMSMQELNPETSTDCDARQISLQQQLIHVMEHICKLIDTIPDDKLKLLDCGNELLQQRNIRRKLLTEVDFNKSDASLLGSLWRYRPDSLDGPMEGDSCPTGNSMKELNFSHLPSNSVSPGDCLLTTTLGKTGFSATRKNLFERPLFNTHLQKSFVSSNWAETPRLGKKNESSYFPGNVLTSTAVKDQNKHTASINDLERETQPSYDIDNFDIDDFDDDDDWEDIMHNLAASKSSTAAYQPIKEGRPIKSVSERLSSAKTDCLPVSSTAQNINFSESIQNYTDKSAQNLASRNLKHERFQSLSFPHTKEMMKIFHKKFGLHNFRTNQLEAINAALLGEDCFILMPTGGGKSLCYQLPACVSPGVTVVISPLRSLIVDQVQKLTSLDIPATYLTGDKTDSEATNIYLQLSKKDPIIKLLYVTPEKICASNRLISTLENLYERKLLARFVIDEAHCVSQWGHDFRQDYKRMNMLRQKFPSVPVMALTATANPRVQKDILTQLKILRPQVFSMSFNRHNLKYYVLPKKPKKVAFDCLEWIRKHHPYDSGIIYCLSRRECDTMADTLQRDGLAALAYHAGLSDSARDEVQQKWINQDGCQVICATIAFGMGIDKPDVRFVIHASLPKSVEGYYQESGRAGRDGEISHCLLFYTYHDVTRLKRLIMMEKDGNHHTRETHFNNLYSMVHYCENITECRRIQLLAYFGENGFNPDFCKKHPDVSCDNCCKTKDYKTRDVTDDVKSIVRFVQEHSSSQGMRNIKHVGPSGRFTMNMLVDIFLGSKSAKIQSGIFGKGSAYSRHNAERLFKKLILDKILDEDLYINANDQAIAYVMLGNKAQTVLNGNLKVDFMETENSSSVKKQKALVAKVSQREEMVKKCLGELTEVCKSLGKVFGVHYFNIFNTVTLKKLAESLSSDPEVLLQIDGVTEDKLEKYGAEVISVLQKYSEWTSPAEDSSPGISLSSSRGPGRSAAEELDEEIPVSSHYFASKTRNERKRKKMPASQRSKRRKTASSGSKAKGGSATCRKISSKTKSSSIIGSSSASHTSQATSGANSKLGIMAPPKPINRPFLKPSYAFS

Target: RecQ-like DNA helicase BLM (Homo sapiens) (UniProt P54132)
Assay: qHTS Confirmation Assay for Inhibitors of Bloom's syndrome helicase (BLM); also: nearly all actives have a fitted effect of over 45% in size
Conditions: BLM DNA unwinding, fluorescence quenching, biochemical
Outline: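 Steps: compound added to 50 nM BLM in buffer (pH 8.0, 5 mM NaCl, poly(dI-dC) 2.5 ug/ml); 15 min RT; reaction started with 200 nM DNA and 2 mM ATP (final); TAMRA signal read twice, 2 h interval.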
% is scaled to controls: 0 for no effect and ±100 for the full control effect; potency is read from the fitted curve at half-maximal effect.

| Compound | Potency | max response, negative = inhibition |
| --- | --- | --- |
| COc1cccc2c1C(=O)c1c(O)c3c(c(O)c1C2=O)C[C@@](O)(C(=O)CO)C[C@@H]3O[C@H]1C[C@H](N)[C@H](O)[C@H](C)O1 | active: 40.8 µM |  |
| O=C(O)C1CSC(c2ccco2)N1 (stereo unspecified) |  | inactive: 3.27% |
| COc1cc(-c2nc3ccc(N4CCN(C)CC4)cc3[nH]2)cc(OC)c1OC | inconclusive: 32.4 µM [inhibitor, partial curve] |  |
| C=C1c2cccc(OC)c2O[C@H](C(=O)OCC)[C@@H]1CCCCCC |  | inactive: -13.8% |
| Cc1cc(OCC(=O)Nc2cc(-c3nc4ncccc4o3)ccc2C)ccc1Cl | inconclusive: 16.2 µM [inhibitor, partial curve, poor fit] |  |
| CN(C)c1ccc(-c2nc(NCc3cccnc3)c3ccccc3n2)cc1 | active: 22.9 µM |  |
| Cc1ccc(SCC(=O)c2ccc(CC(=O)O)s2)cc1 | inconclusive: 20.4 µM [inhibitor, partial curve, poor fit] |  |
| O=C(CSc1ccccc1F)NC(=O)NCc1ccco1 | inconclusive: 25.7 µM [inhibitor, single point] |  |
| Oc1ccc(NCc2ccccc2OCc2ccccc2F)cc1 | inconclusive: 32.4 µM [inhibitor, single point] |  |
| Cc1nc2ccc3nc(NC(=O)C4COc5ccccc5O4)sc3c2s1 (stereo unspecified) |  | inactive: 4.46% |
| O=C(OCC(=O)N1CCN(C(=O)c2ccco2)CC1)c1cc(-c2ccco2)nc2ccccc12 | inconclusive: 10.2 µM [inhibitor, full curve] |  |
| O=C(CSc1nc2scc(-c3ccco3)c2c(=O)n1-c1ccccc1)NCC1CCCO1 (stereo unspecified) | inconclusive: 32.4 µM [inhibitor, single point] |  |
| CCN(CCO)c1nc(SC)nc2c1sc1nc(-c3ccco3)c3c(c12)CCC3 | inconclusive: 20.4 µM [inhibitor, partial curve] |  |
| CC1(C)Cc2c(C#N)c(N3CCN(C(=O)c4ccccc4Cl)CC3)nc(-c3ccco3)c2CS1 | inconclusive: 22.9 µM [inhibitor, partial curve] |  |
| CCSc1ccc(-c2ccco2)nn1 | inconclusive: 2.57 µM [inhibitor, partial curve, poor fit] |  |
| Cc1ccc(-c2nn3c(C)nnc3s2)cc1NC(=O)c1ccc(-c2cccc(Cl)c2)o1 |  | inactive: -11.5% |

| Compound | Potency | max response, negative = inhibition |
| --- | --- | --- |
| O=C(COC(=O)C1CC(=O)N(Cc2ccco2)C1)c1ccc(OC(=O)c2ccco2)cc1 (stereo unspecified) | inconclusive: 22.9 µM [inhibitor, partial curve] |  |
| CCOC(=O)c1sc2nc3c(SCC(=O)O)cc(C(=O)c4cc(F)ccc4O)cn3c(=O)c2c1C | active: 32.4 µM |  |
| O=C(Cn1cnc2sc(-c3ccccc3)cc2c1=O)NCc1ccco1 | inconclusive: 18.2 µM [inhibitor, partial curve] |  |
| Nc1c(C(=O)NCC2CCCO2)sc2nc3c(c(-c4ccco4)c12)CC/C3=C\c1ccco1 (stereo unspecified) | inconclusive: 1.62 µM [inhibitor, full curve] |  |
| COC(=O)c1c(NC(=O)COC(=O)c2ccc(NC(=O)CC#N)cc2)sc2c1CCCCC2 | inconclusive: 20.4 µM [inhibitor, partial curve, poor fit] |  |
| CCC(C)n1c(NC(=O)c2ccccc2)c(C#N)c2nc3ccccc3nc21 (stereo unspecified) | inconclusive: 20.4 µM [inhibitor, partial curve] |  |
| O=C(Nc1ccc2nc(-c3ccco3)c(-c3ccco3)nc2c1)N1CCN(c2ccccn2)CC1 | inconclusive: 8.13 µM [inhibitor, partial curve] |  |
| CCOC(=O)/C=C1\CC(C(=O)OCC)Oc2c(OC)cccc21 (stereo unspecified) |  | inactive: 5.72% |
| CCc1ccc(C(=O)c2cn(CC(=O)Nc3cccc(OC)c3)c3ccc(OC)cc3c2=O)cc1 | active: 20.4 µM |  |
| O=C1C(N2CCOCC2)=C(n2nnc3ccccc32)C(=O)c2ccccc21 | inconclusive: 16.2 µM [inhibitor, partial curve] |  |
| CC(C)Cn1c(N)c(C(=O)NCC2CCCO2)c2nc3ccccc3nc21 (stereo unspecified) |  | inactive: -10.5% |
| O=C(O)c1ccccc1/C=N/NC(=O)c1cc(-c2ccco2)nc2ccccc12 | inconclusive: 28.9 µM [inhibitor, partial curve] |  |
| COc1cc(NCCCC(C)N)c2ncccc2c1 (stereo unspecified) |  | inactive: -11.9% |
| COc1ccc(Cc2nc3ccccc3n2CC(=O)N/N=C/c2ccc(C)cc2O)cc1OC | inconclusive: 0.115 µM [inhibitor, full curve, poor fit] |  |
| S=C(Nc1ccc2nsnc2c1)NC1CCCCC1 |  | inactive: -10.7% |

A stretch from further up, for reference:

| Compound | Potency | max response, negative = inhibition |
| --- | --- | --- |
| COc1ccc(Cc2nc3ccccc3n2CC(=O)N/N=C/c2ccc(C)cc2O)cc1OC | inconclusive: 0.115 µM [inhibitor, full curve, poor fit] |  |
| S=C(Nc1ccc2nsnc2c1)NC1CCCCC1 |  | inactive: -10.7% |
